Results reported in PubChem BioAssay AID2685 (National Center for Advancing Translational Sciences (NCATS), 2010).
The list shows a part of the results. These are further read-outs of the screen, such as a control signal, another cell line or another target. No call is given for them. Compounds called inactive in the main read-out are mostly missing here. Potencies come from curve fits of mixed quality, noted in brackets.

Assay: qHTS Assay for Lipid Storage Modulators in Drosophila S3 Cells;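 on cell number change: cells counted by Cell Tracker Red CMTPX staining in the red channel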
Conditions: BODIPY lipid droplet fluorescence, 18-24 h; for cell number change: measured here: cell count max response, cells fed with added oleic acid
Procedure, shortened: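 Laser-scanning cytometry quantifies lipid droplet accumulation (500–530 nm total intensity; droplet/cell object ratio) in oleic acid-fed (400 uM added) Drosophila S3 cells treated with a concentration series. 20 uM Triacsin C defined 100% inhibition.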

[1] = measured here: cell number channel AC50, cells fed with added oleic acid
[2] = measured here: lipid fluorescence (Fed channel) AC50, cells fed with added oleic acid

## Cc1ccc2c3c1C1(C(=O)N3C(C)(C)CC2C)C(C#N)=C(N)Oc2cc(O)ccc21 (configuration not stated)
  cell number change: -36.2%
[1]
  AC50: 32.6 µM [falling, single point]

## CCN(CCCNS(=O)(=O)c1cc(-c2cc(C)no2)ccc1C)Cc1ccccc1
  cell number change: 30.8%
[1]
  AC50: 0.00461 µM [rising, full curve, poor fit]

## CC(=O)N=c1ncn(CC(COC(C)=O)OC(C)=O)c2nc[nH]c12 (configuration not stated)
  cell number change: -41%
[1]
  AC50: 0.0326 µM [falling, full curve]
[2]
  AC50: 25.9 µM [falling, partial curve, poor fit]

## COc1ccc(-c2nn(C)c(=O)c3ccccc23)cc1NS(C)(=O)=O
  cell number change: -2.72%
[2]
  AC50: 14.6 µM [rising, single point]

## CSc1nc2nc3c(cc2c(=O)n1-c1cccc(C)c1)COC(C)(C)C3
  cell number change: -8.24%
[2]
  AC50: 0.164 µM [falling, full curve]

## CCN1C(=O)C(NC(C)=O)c2cc(OC)ccc21 (configuration not stated)
  cell number change: -23.2%
[1]
  AC50: 4.11 µM [falling, full curve, poor fit]
[2]
  AC50: 3.66 µM [falling, full curve, poor fit]

## CC1CC(C)CN(S(=O)(=O)c2ccc3c(c2)oc(=O)n3CC(=O)N2CCOCC2)C1 (configuration not stated)
[1]
  AC50: 2.59 µM [rising, partial curve]
[2]
  AC50: 1.16 µM [rising, full curve, poor fit]

## CCN(CC)CCCNC(=O)C1CCN(C(=O)c2cc3sccc3n2Cc2ccc(F)cc2)CC1
  cell number change: -21.3%
[2]
  AC50: 3.26 µM [rising, full curve, poor fit]

## CCNC(=O)CCn1nc(-c2ccc(C)cc2)c2ccccc2c1=O
  cell number change: 20.5%

## O=C(CCCSc1ccccc1)Nc1nc(-c2ccco2)c(-c2ccco2)s1
  cell number change: -15.8%
[2]
  AC50: 6.51 µM [rising, partial curve, poor fit]

## O=C(CCc1ccccc1)NNC(=O)Cc1ccccc1
  cell number change: 28.2%
[2]
  AC50: 20.6 µM [rising, partial curve]

## O=C(NCc1ccccn1)c1cccc(NS(=O)(=O)c2ccccc2)c1
  cell number change: -7.47%
[2]
  AC50: 16.4 µM [falling, single point]

## C=CCn1c(SC/C=C/c2ccccc2)nnc1-c1sc(N)nc1C
[2]
  AC50: 0.13 µM [rising, full curve, poor fit]

## COc1cccc(C(=O)OCCN(C)C(C)(C)C)c1
  cell number change: -59%
[1]
  AC50: 0.92 µM [falling, full curve, poor fit]
[2]
  AC50: 0.651 µM [rising, full curve]

## CCCNC(=O)C(Cc1ccccc1C)NC(=O)c1ccc(C(F)(F)F)cc1 (configuration not stated)
  cell number change: -3.49%
[2]
  AC50: 0.116 µM [rising, full curve]

## Cc1ccc(S(=O)(=O)N2CCN(C(=O)Cn3nc(C)c([N+](=O)[O-])c3C)CC2)cc1
  cell number change: 42%
[1]
  AC50: 25.9 µM [rising, single point]

## CCC(CC)C(=O)Nc1ccncc1
  cell number change: 108%
[1]
  AC50: 16.4 µM [rising, partial curve]

## Cc1n[nH]c(C)c1N1C(=O)c2cccc3cc(Br)cc(c23)C1=O
  cell number change: 33.6%
[1]
  AC50: 8.2 µM [rising, partial curve]
[2]
  AC50: 13 µM [rising, partial curve]

## COc1ccc(-c2cn[nH]c2C)cc1
  cell number change: 24.1%
[2]
  AC50: 9.2 µM [rising, partial curve]

## CC1=NN(C(N)=S)C(=O)C1N=Nc1cccc(Cl)c1C (configuration not stated)
  cell number change: -15.8%
[2]
  AC50: 29.1 µM [falling, single point]

## O=c1oc(CCO)cc2ccc(C#Cc3ccsc3)cc12
  cell number change: -11.9%
[2]
  AC50: 0.103 µM [falling, full curve, poor fit]

## COc1cc(NC(=O)COC(=O)CSc2ccc3ccccc3c2)c(C)cc1[N+](=O)[O-]
  cell number change: 10.7%
[1]
  AC50: 0.82 µM [rising, full curve]
[2]
  AC50: 1.3 µM [rising, partial curve]

## Oc1ccc(C2N=C(c3ccccc3)NC(c3ccccc3)=N2)cc1
  cell number change: 35.5%
[1]
  AC50: 0.103 µM [rising, full curve]

## COc1cc(SC)ccc1C(=O)Nc1ccccc1C#N
  cell number change: -26.1%
[2]
  AC50: 6.51 µM [rising, single point]

## COc1cc(CCC(=O)Nc2ccc(Br)c(C(F)(F)F)c2)cc(OC)c1OC
  cell number change: 31.2%
[1]
  AC50: 5.8 µM [rising, partial curve]

## Cc1ccc(/C=C2/SC(=Nc3ccc(F)cc3)NC2=O)s1
  cell number change: 6.14%
[2]
  AC50: 0.517 µM [rising, single point]

## CC(C)(C)c1cc(=O)n(-c2ccccc2)[nH]1
  cell number change: -74.6%
[1]
  AC50: 20.6 µM [falling, partial curve]
[2]
  AC50: 25.9 µM [falling, partial curve]

## COCCOC(=O)C1=C(C)NC2=C(C(=O)CC(C)(C)C2)C1c1cccnc1 (configuration not stated)
[1]
  AC50: 1.84 µM [rising, partial curve]
[2]
  AC50: 0.13 µM [rising, full curve, poor fit]

## O=C(Nc1ccc2c(c1)OCO2)c1noc2c1CCCC2
  cell number change: -11.7%

## O=C(O)c1cccc(NC(=O)c2ccc3c(c2)C(=O)N(c2ccccc2)C3=O)c1
  cell number change: 31.3%

## Cc1ccccc1CCN(C(=O)Cn1nnc2ccccc21)C(C(=O)NCC1CCCO1)c1nc2ccccc2n1C (configuration not stated)
  cell number change: 9.85%
[2]
  AC50: 0.731 µM [rising, partial curve, poor fit]

## CCn1cc(C(=O)NCCCN2CCCC(C)C2)c(=O)c2cc(S(=O)(=O)N(C)C3CCCCC3)ccc21 (configuration not stated)
  cell number change: -1.21%

## Cc1cccc(N2CCN(C(=O)CCNS(=O)(=O)c3ccc4c(c3)CCC(=O)N4)CC2)c1C
[1]
  AC50: 6.51 µM [rising, single point]
[2]
  AC50: 6.51 µM [rising, single point]

## Fc1ccc(N2CCN(C3=Nc4cccc5cccc3c45)CC2)cc1
  cell number change: -19.5%
[1]
  AC50: 0.00461 µM [falling, full curve, poor fit]
[2]
  AC50: 0.13 µM [falling, full curve, poor fit]

## Cc1cccc(NC(=O)c2ccc(CN3CCc4ccccc4C3)cc2)c1C
  cell number change: -30.2%

## Cc1cccc(CS(=O)(=O)Cc2ccc(C(=O)NCCc3ccccc3)o2)c1
  cell number change: -13.5%
[2]
  AC50: 29.1 µM [falling, single point]

## CCSc1nnc(NC(=O)c2nn(C(C)C)c(=O)c3ccccc23)s1
  cell number change: 79.1%
[1]
  AC50: 16.4 µM [rising, single point]
[2]
  AC50: 20.6 µM [rising, single point]

## Cc1ccc(NC(=O)Nc2cc(C(F)(F)F)c[nH]c2=O)cc1
  cell number change: 12.6%
[2]
  AC50: 3.66 µM [rising, single point]

## CC(OC(=O)c1ccc2ncsc2c1)C(=O)Nc1ncc(Cl)cc1Cl (configuration not stated)
  cell number change: 22.4%
[2]
  AC50: 20.6 µM [rising, single point]

## OC(CNCC1COc2ccccc2O1)COc1ccccc1F (configuration not stated)
  cell number change: -13.3%
[1]
  AC50: 0.13 µM [falling, full curve, poor fit]
[2]
  AC50: 0.103 µM [falling, full curve, poor fit]

## CCOC(=O)N1CCN(C(=O)CSc2ccc3nnc(CCNC(=O)c4ccccc4)n3n2)CC1
  cell number change: -20.4%
[2]
  AC50: 0.103 µM [falling, full curve]

## COc1cc(/C=N\NC(=O)c2ccc(-c3ccccc3)cc2)ccc1OCC(N)=O
  cell number change: -3.47%
[1]
  AC50: 0.651 µM [rising, full curve]
[2]
  AC50: 29.1 µM [rising, single point]

## CCCc1cc(=O)[nH]c(SCC(=O)c2cc(C)n(-c3c(C)n(C)n(-c4ccccc4)c3=O)c2C)n1
  cell number change: 11.9%

## CSc1nc(-c2ccccc2)nc(N2CCOCC2)c1C(C)=O
  cell number change: -17.8%
[2]
  AC50: 11.6 µM [rising, single point]

## Cc1cc(Br)c(NC(=O)CCl)c(Br)c1
  cell number change: -35.4%
[1]
  AC50: 4.11 µM [falling, full curve]
[2]
  AC50: 29.1 µM [falling, single point]

## CCOC(=O)c1csc(NC(=O)CSc2nnnn2-c2ccc(OCC)cc2)n1
  cell number change: 11.1%
[2]
  AC50: 5.8 µM [rising, single point]

## CCN(CC)S(=O)(=O)c1ccc(/C(O)=C2/C(=O)C(=O)N(CCOC)C2c2ccccc2)cc1 (configuration not stated)
  cell number change: -21.8%
[2]
  AC50: 0.651 µM [falling, full curve, poor fit]

## CC(C)NC(=O)NC(=O)CN1c2cccc3cccc(c23)S1(=O)=O
  cell number change: -0.704%

## CC1N(C)c2cccc3cccc(c23)N1C
  cell number change: -7.01%
[2]
  AC50: 1.64 µM [rising, partial curve]

## CCC(C)(C(=O)NC1CCCCC1)N(Cc1ccco1)C(=O)Cc1cccs1 (configuration not stated)
  cell number change: -24.1%

## CN(C)CCCn1c(N)c(C#N)c2nc(C#N)c(C#N)nc21
[1]
  AC50: 0.92 µM [falling, full curve, poor fit]
[2]
  AC50: 6.51 µM [falling, single point]

## COc1cc(-c2cc(C(=O)NN3CCN(C)CC3)c3ccccc3n2)cc(OC)c1OC
  cell number change: 8.44%
[2]
  AC50: 0.116 µM [rising, partial curve]

## Cc1ccc(/C=C/C(=O)NC(=S)Nc2ccc(S(=O)(=O)Nc3cc(C)on3)cc2)cc1
  cell number change: 10%
[2]
  AC50: 16.4 µM [rising, partial curve]

## CC(C)CCNC(=O)C1CCC(=O)N1C(C)C (configuration not stated)
  cell number change: -8.77%

## Cc1ccccc1NC(=S)NNC(=O)c1ccncc1
  cell number change: 172%
[1]
  AC50: 29.1 µM [rising, single point]

## CCOC(=O)c1nnc(-c2ccccc2)nc1Sc1ccccc1Cl
  cell number change: -52.6%
[1]
  AC50: 25.9 µM [falling, partial curve]
[2]
  AC50: 5.17 µM [falling, full curve, poor fit]

## Cc1ccc(NC(=O)CSc2nnc(NC(=O)C3CC3)s2)cc1
  cell number change: 1.51%

## Cc1ccc(/C=N/N=C2\SCC(=O)N2CC2CC2)cc1
  cell number change: 12.9%
[2]
  AC50: 2.31 µM [rising, partial curve, poor fit]
